# Laboratory results taken from PubChem BioAssay AID2662 (National Center for Advancing Translational Sciences (NCATS), 2010).
# Sequences of proteins named here, by UniProt entry; tags and fusion partners are left off.
# UniProt Q03164, whole entry, looked up: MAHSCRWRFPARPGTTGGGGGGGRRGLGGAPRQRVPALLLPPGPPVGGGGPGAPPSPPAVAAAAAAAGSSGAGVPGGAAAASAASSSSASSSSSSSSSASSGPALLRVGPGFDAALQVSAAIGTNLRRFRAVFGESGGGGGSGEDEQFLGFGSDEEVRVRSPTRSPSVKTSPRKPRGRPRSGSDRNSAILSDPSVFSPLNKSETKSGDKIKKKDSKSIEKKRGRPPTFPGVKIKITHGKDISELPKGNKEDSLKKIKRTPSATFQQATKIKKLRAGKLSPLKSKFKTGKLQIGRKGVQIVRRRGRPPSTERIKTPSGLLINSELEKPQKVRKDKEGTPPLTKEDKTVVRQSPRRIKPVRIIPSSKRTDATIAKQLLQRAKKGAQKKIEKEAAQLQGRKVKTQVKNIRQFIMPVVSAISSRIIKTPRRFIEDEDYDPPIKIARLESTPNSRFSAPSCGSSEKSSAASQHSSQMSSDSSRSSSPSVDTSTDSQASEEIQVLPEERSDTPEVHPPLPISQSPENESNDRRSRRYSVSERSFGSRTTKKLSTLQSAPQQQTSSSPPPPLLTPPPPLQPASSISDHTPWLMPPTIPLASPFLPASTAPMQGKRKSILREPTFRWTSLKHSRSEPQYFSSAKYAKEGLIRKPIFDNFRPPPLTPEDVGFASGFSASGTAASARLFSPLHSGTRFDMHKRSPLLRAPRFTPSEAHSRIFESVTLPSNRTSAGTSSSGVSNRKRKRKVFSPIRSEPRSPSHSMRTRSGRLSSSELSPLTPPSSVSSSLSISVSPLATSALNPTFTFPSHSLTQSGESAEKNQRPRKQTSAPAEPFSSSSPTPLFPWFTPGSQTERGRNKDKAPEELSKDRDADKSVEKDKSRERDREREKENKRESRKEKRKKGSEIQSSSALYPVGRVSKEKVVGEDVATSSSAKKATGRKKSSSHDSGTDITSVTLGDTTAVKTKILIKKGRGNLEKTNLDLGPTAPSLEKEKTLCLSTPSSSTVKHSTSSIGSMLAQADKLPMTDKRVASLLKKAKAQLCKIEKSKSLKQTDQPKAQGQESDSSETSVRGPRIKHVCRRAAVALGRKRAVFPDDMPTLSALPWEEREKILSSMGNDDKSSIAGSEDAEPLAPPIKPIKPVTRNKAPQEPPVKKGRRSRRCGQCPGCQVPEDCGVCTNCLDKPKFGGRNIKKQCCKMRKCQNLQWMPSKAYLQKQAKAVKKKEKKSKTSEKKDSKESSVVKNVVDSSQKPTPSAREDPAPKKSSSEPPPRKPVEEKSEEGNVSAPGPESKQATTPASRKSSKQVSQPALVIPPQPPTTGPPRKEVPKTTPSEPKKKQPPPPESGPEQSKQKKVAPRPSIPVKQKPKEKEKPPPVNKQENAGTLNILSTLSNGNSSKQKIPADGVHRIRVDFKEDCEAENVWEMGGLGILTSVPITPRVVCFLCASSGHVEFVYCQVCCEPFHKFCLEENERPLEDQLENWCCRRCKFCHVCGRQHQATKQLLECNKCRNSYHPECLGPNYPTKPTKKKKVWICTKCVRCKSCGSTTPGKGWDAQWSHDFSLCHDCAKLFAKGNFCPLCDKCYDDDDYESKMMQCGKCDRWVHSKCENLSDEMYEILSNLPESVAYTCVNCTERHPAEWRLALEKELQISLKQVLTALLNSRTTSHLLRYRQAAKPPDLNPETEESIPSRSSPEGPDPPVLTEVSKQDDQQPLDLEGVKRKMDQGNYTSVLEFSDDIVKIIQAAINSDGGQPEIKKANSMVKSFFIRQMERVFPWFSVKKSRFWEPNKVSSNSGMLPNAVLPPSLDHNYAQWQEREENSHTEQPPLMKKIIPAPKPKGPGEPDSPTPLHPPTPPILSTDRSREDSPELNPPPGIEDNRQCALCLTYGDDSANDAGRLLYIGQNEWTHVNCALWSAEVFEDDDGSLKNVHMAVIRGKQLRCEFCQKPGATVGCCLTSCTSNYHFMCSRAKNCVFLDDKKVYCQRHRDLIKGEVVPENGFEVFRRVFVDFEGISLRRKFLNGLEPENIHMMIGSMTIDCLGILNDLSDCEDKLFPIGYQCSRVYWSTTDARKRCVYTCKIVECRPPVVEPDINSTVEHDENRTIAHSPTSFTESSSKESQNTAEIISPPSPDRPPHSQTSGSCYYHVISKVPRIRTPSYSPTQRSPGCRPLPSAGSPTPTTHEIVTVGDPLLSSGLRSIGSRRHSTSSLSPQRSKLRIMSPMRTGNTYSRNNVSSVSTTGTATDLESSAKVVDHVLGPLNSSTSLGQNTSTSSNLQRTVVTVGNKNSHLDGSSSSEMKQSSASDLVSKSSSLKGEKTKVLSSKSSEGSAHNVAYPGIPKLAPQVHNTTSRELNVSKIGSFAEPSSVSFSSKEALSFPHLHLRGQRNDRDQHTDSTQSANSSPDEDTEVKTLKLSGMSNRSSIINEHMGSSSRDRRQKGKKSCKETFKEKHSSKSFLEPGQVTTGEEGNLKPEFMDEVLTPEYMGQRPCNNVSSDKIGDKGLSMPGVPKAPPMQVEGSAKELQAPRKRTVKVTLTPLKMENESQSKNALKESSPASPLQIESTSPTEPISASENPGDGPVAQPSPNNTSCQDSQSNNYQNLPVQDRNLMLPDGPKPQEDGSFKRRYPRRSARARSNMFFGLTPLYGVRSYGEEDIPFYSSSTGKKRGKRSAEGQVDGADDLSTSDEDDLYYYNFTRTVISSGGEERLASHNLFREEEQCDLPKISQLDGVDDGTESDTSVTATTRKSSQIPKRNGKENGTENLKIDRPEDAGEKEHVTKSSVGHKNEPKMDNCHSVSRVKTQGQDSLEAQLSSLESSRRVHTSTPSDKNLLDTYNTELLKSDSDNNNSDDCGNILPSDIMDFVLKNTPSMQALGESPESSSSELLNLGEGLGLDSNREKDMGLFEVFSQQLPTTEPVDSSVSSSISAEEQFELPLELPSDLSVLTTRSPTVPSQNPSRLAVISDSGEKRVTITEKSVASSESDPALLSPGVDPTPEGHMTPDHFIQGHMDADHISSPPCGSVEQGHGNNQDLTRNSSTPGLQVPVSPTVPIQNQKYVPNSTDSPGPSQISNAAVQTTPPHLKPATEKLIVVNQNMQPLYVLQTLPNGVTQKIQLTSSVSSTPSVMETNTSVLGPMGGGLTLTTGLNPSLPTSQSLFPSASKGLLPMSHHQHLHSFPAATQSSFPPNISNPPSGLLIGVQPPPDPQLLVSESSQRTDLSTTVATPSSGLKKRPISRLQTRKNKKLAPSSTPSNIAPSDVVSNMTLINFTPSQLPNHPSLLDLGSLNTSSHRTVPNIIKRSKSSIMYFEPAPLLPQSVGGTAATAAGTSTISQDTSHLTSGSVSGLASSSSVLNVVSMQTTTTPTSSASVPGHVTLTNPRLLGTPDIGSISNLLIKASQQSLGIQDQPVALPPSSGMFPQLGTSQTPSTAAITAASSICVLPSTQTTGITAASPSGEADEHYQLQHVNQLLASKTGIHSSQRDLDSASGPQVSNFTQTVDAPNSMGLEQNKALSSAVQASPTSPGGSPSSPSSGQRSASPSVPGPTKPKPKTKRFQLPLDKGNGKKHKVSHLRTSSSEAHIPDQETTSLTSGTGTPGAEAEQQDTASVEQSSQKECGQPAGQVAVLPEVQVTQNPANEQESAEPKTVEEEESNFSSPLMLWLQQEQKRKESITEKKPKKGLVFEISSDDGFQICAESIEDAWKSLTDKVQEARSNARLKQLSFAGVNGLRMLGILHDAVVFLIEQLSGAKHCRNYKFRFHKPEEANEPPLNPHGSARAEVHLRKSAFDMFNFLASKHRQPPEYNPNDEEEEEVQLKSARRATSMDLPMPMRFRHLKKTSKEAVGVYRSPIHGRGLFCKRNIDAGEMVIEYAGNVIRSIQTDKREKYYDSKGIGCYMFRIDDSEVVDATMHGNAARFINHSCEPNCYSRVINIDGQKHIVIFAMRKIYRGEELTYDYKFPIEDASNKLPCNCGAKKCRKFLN
# Hit rate of the full screen: of about 290,000 compounds, about 110 (0.038%) were called active. The inconclusive results got no clear call from the source; some entries with a clear call stand among them for comparison. Calls follow the shape of the dose curve; as a rule, active = well fitted inhibition curve with a large enough effect in the polarisation, with a control signal flat (not every such curve was filed as active); inconclusive = small, poorly fitted or top-dose-only effect, or effect the other way, or a change in a side signal; inactive = no such curve, though single readings can be large or run the other way; the % refers to the polarisation. Potencies of inconclusive entries are doubtful fits and often do not repeat. “Side channel” marks fits to a control or component signal instead of the main read-out.
# Target: Histone-lysine N-methyltransferase 2A (Homo sapiens) (UniProt Q03164)
# Assay: qHTS Fluorescence Polarization Assay for Inhibitors of MLL CXXC domain - DNA interaction
# Conditions: MLL-CXXC / FITC-HOXA9 DNA fluorescence polarization; series mostly up to 115 µM
# How it was run: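 Steps: dispense CXXC domain solution (7 uM) → pin compounds or unlabeled HOX-A9 DNA control → 5 min ambient → add FLSN-HOX-A9 solution (50 nM) → spin → 30 min ambient → fluorescence polarization. Tris pH 7.5/NaCl/DTT/BSA buffer.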
# Potency is read from the fitted curve at half-maximal effect.
row,Structure (SMILES),Potency
1,CCOC(=O)/C=c1\s/c(=C\c2c(OC)ccc3ccccc23)c(=O)n1CC(=O)NCC1CCCO1 (configuration not stated),"inconclusive: 31.6 µM [fluorescent, side channel, partial curve]"
2,CCOC(=O)N/N=C/c1cn(Cc2ccc(Cl)cc2)c2ccccc12,"inconclusive: 89.1 µM [quencher, side channel, single point]"
3,Oc1ccc(/C=N/Nc2ccc(Cl)nn2)cc1O,inactive
4,CCN(CC)c1ccc(NC(=O)CNCc2ccccc2Cl)c(C)c1,"inconclusive: 11.2 µM [fluorescent, side channel, single point]"
5,O=C(O)CCC(=O)N1N=C(c2cccs2)CC1c1cn(-c2ccccc2)nc1-c1ccccc1 (configuration not stated),inactive
6,CCOC(=O)Cn1nc(/C=C/c2ccc(C(C)C)cc2)ccc1=O,inactive
7,CCOc1ccc(N2C(=O)CC(Sc3nc(CC(C)C)ccc3C#N)C2=O)cc1 (configuration not stated),"inconclusive: 100 µM [inhibitor, partial curve, poor fit]"
8,N#Cc1c(N)c2ccccn2c1C(=O)c1ccc(Br)cc1,"inconclusive: 31.6 µM [fluorescent, side channel, single point]"
9,COC(=O)c1cn(CC(=O)N2CCCCCC2)c2ccccc12,inactive
10,COc1ccc(OC)c2[nH]c(C(=O)N3CCC(C(=O)O)CC3)cc12,"inconclusive: 3.16 µM [quencher, side channel, full curve, poor fit]"
11,CC[n+]1c(/C=C/C=C/N(C(C)=O)c2ccccc2)sc2ccccc21,"inconclusive: 35.5 µM [fluorescent, side channel, partial curve]"
12,O=C(Nc1nnc(-c2ccccc2)s1)c1ccccc1O,inactive
13,CSc1c(C#N)c(N)nc2sc(C(=O)c3ccccc3)c(N)c12,"inconclusive: 39.8 µM [fluorescent, side channel, single point]"
14,COc1cc(/C=C/C(=O)CC(=O)/C=C/c2ccc(O)c(OC)c2)ccc1O,"inconclusive: 14.1 µM [fluorescent, side channel, full curve]"
15,C[N+](C)(C)CCOC(=O)C1(c2ccccc2)CCCC1,inactive
16,COC(=O)C1CCN(c2nc3ccccc3nc2C(C#N)C(=O)NCCc2ccccc2)CC1 (configuration not stated),"inconclusive: 10 µM [fluorescent, side channel, full curve]"
17,CC(=O)Nc1ccc(C(=O)CS(=O)(=O)c2ccc(C)cc2)cc1,inactive
18,O=C(NNC(=O)c1cc2ccccc2cc1O)Nc1ccccc1F,"inconclusive: 15.8 µM [fluorescent, side channel, single point]"
19,COCCCNc1nc2c(c(=O)n(Cc3ccc(F)cc3)c(=O)n2C)n1C,"inconclusive: 10 µM [fluorescent, side channel, single point]"
20,CC(=O)c1cccc(NC(=O)NCCc2ccc(Cl)cc2)c1,"inconclusive: 1.58 µM [quencher, side channel, full curve, poor fit]"
21,Cc1cc2nc3c(=O)[nH]c(=O)nc-3n(CC(O)C(O)C(O)COP(=O)(O)O)c2cc1C (configuration not stated),"inconclusive: 50.1 µM [fluorescent, side channel, partial curve]"

# Gathered by group: those above containing fluorine.
row,Structure (SMILES),Potency
18,O=C(NNC(=O)c1cc2ccccc2cc1O)Nc1ccccc1F,"inconclusive: 15.8 µM [fluorescent, side channel, single point]"
19,COCCCNc1nc2c(c(=O)n(Cc3ccc(F)cc3)c(=O)n2C)n1C,"inconclusive: 10 µM [fluorescent, side channel, single point]"

# Going on with the list:

row,Structure (SMILES),Potency
1,CCOc1ccc(C2C(C#N)=C(N)SC(N)=C2C#N)c(OCC)c1,inactive
2,CC1CCCCN1S(=O)(=O)c1ccc(N(C(=O)c2cnccn2)C(C(=O)NC2CCCCC2)c2cccs2)cc1 (configuration not stated),inactive
3,CC(C)CN(C[C@@H](O)[C@H](Cc1ccccc1)NC(=O)O[C@H]1CO[C@H]2OCC[C@H]21)S(=O)(=O)c1ccc(N)cc1,inactive
4,O=C(CCN1C(=O)C2C3C=CC(C4CC34)C2C1=O)Oc1ccccc1 (configuration not stated),"inconclusive: 1.41 µM [inhibitor, partial curve, poor fit]"
5,CC(C)Oc1ccc(S(=O)(=O)N2CCCCC2)cc1NC(=O)CN1C(=O)NC(C)(c2ccccc2)C1=O (configuration not stated),"inconclusive: 39.8 µM [fluorescent, side channel, single point]"
6,Cc1c(CCC(=O)NCC(=O)NCC(=O)O)c(=O)oc2cc3oc4c(c3cc12)CCCC4,"inconclusive: 15.8 µM [inhibitor, single point]"
7,CCCN(CC(=O)Nc1ccccc1OC)C(=O)c1cc(S(=O)(=O)NCc2ccccc2)ccc1C,"inconclusive: 11.2 µM [fluorescent, side channel, single point]"
8,O=S(=O)(Nc1cccnc1)c1ccc(Br)c2ccccc12,"inconclusive: 35.5 µM [inhibitor, single point]"
9,CCOC(=O)N1CCN(C(=O)c2cc(-c3ccc(OCC)cc3)nc3ccccc23)CC1,inactive
10,Nc1ccc2oc(-c3cccc4ccccc34)nc2c1,"inconclusive: 10 µM [fluorescent, side channel, single point]"
11,O=C(N/N=C/c1ccccn1)c1cc(Br)ccc1O,"inconclusive: 31.6 µM [inhibitor, single point]"
12,C=CCNc1ncnc2ccccc12,inactive
13,Cc1ccc(NC(=O)c2cc(=O)c3ccccc3o2)c(C)c1,inactive
14,O=C(Nc1ccc(N2CCOCC2)c([N+](=O)[O-])c1)c1ccco1,"inconclusive: 8.91 µM [inhibitor, partial curve]"
15,COc1cc(CC(=O)OCC(=O)NCC(C)C)cc(OC)c1OC,"inconclusive: 11.2 µM [fluorescent, side channel, full curve]"
16,CCN(CC)S(=O)(=O)c1ccc(N2C(=O)Nc3ccccc3N2O)cc1,"inconclusive: 8.91 µM [inhibitor, single point]"
17,CCC(C)NS(=O)(=O)c1ccc(OCC(=O)NCc2ccc3c(c2)OCO3)cc1 (configuration not stated),inactive
18,CC(=O)c1cccc(NC(=S)NC(=O)CC(C)(C)C)c1,"inconclusive: 4.47 µM [inhibitor, partial curve]"
19,C=CCNC(=S)Nc1ccc2nsnc2c1,inactive
20,CCN1C(=O)c2cccc3c(N)ccc(c23)C1=O,"inconclusive: 3.16 µM [fluorescent, side channel, full curve]"
21,CCCCCCOc1ccc(C(=N)N(CCCC)CCCC)c2ccccc12,"inconclusive: 31.6 µM [quencher, side channel, partial curve, poor fit]"
